Measurements as given in patent publication US20170189448A1.
No constants are given. Whether binding was seen depends on the method and setting. Some binding calls cover weakened binding; strength is not graded here.

By UniProt entry, the sequences of proteins in these tests, tags left out. Where a name states a change or a piece, a line headed by the entry shows the natural chain unless it says otherwise. Residues count along the entry.
UniProt P01137, residues 30-390: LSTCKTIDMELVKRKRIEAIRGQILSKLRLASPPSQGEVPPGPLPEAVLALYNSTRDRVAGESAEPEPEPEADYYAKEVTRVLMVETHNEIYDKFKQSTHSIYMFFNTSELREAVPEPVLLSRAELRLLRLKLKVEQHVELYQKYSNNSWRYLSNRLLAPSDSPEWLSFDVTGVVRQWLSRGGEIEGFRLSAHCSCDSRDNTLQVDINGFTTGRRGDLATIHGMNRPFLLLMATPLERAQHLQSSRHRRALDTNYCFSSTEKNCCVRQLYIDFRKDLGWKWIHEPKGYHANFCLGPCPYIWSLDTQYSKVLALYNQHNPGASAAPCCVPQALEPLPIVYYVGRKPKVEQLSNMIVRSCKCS
UniProt Q14392: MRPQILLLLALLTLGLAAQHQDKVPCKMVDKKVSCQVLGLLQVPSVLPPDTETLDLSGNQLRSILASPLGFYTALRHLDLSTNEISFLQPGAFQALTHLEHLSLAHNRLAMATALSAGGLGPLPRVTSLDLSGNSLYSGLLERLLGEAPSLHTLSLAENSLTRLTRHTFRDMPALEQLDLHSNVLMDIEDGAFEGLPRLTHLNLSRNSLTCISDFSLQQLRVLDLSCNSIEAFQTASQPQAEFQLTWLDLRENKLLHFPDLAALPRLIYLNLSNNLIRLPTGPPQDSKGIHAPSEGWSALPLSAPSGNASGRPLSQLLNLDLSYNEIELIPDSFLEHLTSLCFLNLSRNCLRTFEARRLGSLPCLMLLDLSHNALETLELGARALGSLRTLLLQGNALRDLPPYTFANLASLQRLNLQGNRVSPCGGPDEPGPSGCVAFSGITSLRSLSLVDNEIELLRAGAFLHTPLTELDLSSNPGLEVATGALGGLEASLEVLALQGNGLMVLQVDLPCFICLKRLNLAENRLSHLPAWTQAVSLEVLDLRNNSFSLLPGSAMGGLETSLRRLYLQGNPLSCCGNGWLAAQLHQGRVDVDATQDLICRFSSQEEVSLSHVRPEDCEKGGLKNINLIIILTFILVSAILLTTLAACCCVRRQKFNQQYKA

Biological target: human LAP/TGF-β1 (membrane-bound latent TGF-β1) on hASCs (human) (UniProt P01137)
Test: summary of flow cytometry co-staining and GARP shRNA silencing experiments on hASCs

Substance: human GARP (glycoprotein-A repetitions predominant protein, LRRC32) on human adipose-derived stem cells (hASCs) (from UniProt Q14392 20-662) (receptor)
- binding: binds
